{"source": "patent US9079157B2", "about": "“Protein removal agent” (Thermo Fisher Scientific Baltics, UAB, priority 2012, dated 2015)", "origin": "cited, not measured here", "tested_on": "enzymes", "conditions": "referenced in the BRENDA database", "note": "At least one structure is not confirmed: it was looked up by name or label, or the drawing left a doubt."}
{"smiles": "O=C(O)C1=CC(=C(c2ccc(O)c(C(=O)O)c2)c2ccc(O)c(C(=O)O)c2)C=CC1=O", "note": "[aurintricarboxylic acid]", "values": [{"measurement": "Number of inhibited enzymes", "value": 21}]}
